Results are given in words; binding and its absence hold for the method and conditions named. Some results given as binding are weak or reduced against the parent protein; the word gives no strength.

Protein sequences, listed by entry. Tags and fused reporters are not part of them. Residues count along the entry.
UniProt Q96NY8, residues 32-510: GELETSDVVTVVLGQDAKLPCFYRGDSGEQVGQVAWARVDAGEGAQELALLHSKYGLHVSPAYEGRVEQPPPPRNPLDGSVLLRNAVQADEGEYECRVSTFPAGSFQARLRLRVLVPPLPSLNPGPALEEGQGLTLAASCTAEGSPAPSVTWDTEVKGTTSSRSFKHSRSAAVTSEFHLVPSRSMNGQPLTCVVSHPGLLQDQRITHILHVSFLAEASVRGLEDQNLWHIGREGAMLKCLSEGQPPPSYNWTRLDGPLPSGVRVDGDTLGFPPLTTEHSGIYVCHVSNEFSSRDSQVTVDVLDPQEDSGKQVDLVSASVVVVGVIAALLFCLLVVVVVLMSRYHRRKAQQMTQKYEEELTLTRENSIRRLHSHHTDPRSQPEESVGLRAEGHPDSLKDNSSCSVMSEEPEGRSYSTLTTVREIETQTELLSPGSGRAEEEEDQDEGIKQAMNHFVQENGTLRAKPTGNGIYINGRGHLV

The results in this text go back to US20260008848A1, “ANTI-NECTIN-4 ANTIBODY, AND ANTIBODY-DRUG CONJUGATE AND USE THEREOF” (Bio-Thera Solutions, Ltd., priority 2022, published 2026).

In the test the target is Nectin-4 on T-47D cells (human ductal breast carcinoma cells) (human) (UniProt Q96NY8). The test can be described thus: flow cytometry (FACS) on T-47D cells, PE-labeled anti-human Fc secondary antibody. Background: Flow cytometry measures light scatter and fluorescence of single cells or particles in a stream.

B1: anti-Nectin-4 antibody ASG-AM (antibody, human IgG1, kappa, V domains shown)
VH: EVQLVESGGGLVQPGGSLRLSCAASGFTFSSYNMNWVRQAPGKGLEWVSYISSSSSTIYYADSVKGRFTISRDNAKNSLSLQMNSLRDEDTAVYYCARAYYYGMDVWGQGTLVTVSS
VL: DIQMTQSPSSVSASVGDRVTITCRASQGISGWLAWYQQKPGKAPKFLIYAASTLQSGVPSRFSGSGSGTDFTLTISSLQPEDFATYYCQQAGPGWVFGQGTKVEIKR
notes: Expressed in HEK293F cells
With B1, the binding result is listed as “binds”.

B2: reference antibody ASG-22 (antibody, human IgG1, kappa, V domains shown)
VH: EVQLVESGGGLVQPGGSLRLSCAASGFTFSSYNMNWVRQAPGKGLEWVSYISSSSSTIYYADSVKGRFTISRDNAKNSLSLQMNSLRDEDTAVYYCARAYYYGMDVWGQGTLVTVSS
VL: DIQMTQSPSSVSASVGDRVTITCRASQGISGWLAWYQQKPGKAPKFLIYAASTLQSGVPSRFSGSGSGTDFTLTISSLQPEDFATYYCQQANSFPPTFGGGTKVEIKR
notes: Expressed in HEK293F cells
Consider B2, for which the binding result is on record as “binds”.
